Laboratory results from PMC11156954, “Inhibition and transport mechanisms of the ABC transporter hMRP5” (Nature Communications, 2024).

test system: R motif of hMRP5; assay: Protein lipid overlay (lipid strip) assay, R motif; type: binding, human; settings: Membrane Lipid Strips, 100 pmol lipid per spot, 0.25 µg/ml protein, 1 h, anti-strep immunoblot

| Compound | lipid binding of purified R motif, in words |
| --- | --- |
| CCCCCCCC(=O)OC[C@H](COP(=O)(O)OC1[C@H](O)[C@H](OP(=O)(O)O)C(O)[C@H](OP(=O)(O)O)[C@H]1O)OC(=O)CCCCCCC (stereo partly shown) [phosphatidylinositol 3,5-bisphosphate] | relatively weak affinity |
| CCCCCCCCCCCCCCCC(=O)OC[C@H](COP(=O)(O)O[C@@H]1[C@H](O)[C@H](OP(=O)(O)O)[C@@H](O)[C@H](O)[C@H]1O)OC(=O)CCCCCCCCCCCCCCC [phosphatidylinositol 3-phosphate] | strongly bound |
| phosphatidylserine [PS] | rarely interacting |
| phosphatidic acid [PA] | strongly bound |
| phosphatidylinositol 4,5-bisphosphate | relatively weak affinity |
| PI(4)P | strongly bound |
| phosphatidylinositol 5-phosphate | strongly bound |

test system: wt-hMRP5; assay: MST binding assay, wt-hMRP5; set-up: species or system human; settings: three independent measurements

| Compound | binding affinity to wt-hMRP5, in words |
| --- | --- |
| Nc1nc2c(ncn2[C@@H]2O[C@@H]3COP(=O)(O)O[C@H]3[C@H]2O)c(=O)[nH]1 [cGMP, cyclic GMP] | low binding affinities |
| C[C@]12CC[C@H]3[C@@H](CCC4=CC(=O)CC[C@@]43C)[C@@H]1CC[C@@H]2O [testosterone] | low binding affinities |
| CC(=O)[C@H]1CC[C@H]2[C@@H]3CCC4=CC(=O)CC[C@]4(C)[C@H]3CC[C@]12C [progesterone] | low binding affinities |
